For one substance, binding results are on record in PMC9074275.

Chains of the proteins cited; added tags and fusions are not shown. Lines headed by an entry give the natural chain unless they say otherwise; changes in a name come on top.
UniProt P05556: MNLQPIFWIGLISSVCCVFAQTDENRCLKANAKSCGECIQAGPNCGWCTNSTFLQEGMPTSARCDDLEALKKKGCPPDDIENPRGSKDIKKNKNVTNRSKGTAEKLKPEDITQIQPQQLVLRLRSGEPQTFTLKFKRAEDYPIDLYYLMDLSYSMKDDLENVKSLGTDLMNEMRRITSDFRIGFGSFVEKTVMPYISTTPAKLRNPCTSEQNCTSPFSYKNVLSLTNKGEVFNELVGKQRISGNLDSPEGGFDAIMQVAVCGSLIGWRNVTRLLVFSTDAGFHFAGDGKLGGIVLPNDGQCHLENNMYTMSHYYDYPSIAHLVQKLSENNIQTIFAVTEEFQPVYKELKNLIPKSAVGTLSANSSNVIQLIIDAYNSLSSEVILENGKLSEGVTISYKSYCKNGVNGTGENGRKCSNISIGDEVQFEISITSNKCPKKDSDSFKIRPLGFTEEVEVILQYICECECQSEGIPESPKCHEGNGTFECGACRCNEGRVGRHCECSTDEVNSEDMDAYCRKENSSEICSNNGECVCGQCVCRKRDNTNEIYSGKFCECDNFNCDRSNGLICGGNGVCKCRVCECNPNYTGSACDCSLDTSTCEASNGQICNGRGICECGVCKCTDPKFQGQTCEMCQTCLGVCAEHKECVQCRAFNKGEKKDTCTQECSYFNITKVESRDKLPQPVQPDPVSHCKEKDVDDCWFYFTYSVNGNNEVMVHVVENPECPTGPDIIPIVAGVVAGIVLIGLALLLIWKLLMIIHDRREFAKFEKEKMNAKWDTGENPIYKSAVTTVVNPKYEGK

Results are given in words; binding and its absence hold for the method and conditions named. In cells and extracts the contact can be indirect. Some binding calls cover weakened binding; strength is not graded here. Where a sequence is shown, tags or fusion partners need not be part of it.

The target in this experiment is T1, FLAG-tagged Tspan7 (Tetraspanin-7) (human) (UniProt P41732).
T1 sequence: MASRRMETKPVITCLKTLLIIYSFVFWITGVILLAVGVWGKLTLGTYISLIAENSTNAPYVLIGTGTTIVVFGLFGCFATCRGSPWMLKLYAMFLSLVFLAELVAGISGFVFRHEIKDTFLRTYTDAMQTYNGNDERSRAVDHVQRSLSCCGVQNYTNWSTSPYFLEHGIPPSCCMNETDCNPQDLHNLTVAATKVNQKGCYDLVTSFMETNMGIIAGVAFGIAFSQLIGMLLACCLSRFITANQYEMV
Kind of experiment: co-IP; Anti-Flag M2 agarose beads on RIPA lysates of U2OS cells expressing FLAG-tagged Tspan7 or control constructs; precipitates rinsed thrice with PBS, SDS-PAGE and western blotting. Background: Immunoblotting shows a protein as a band on a membrane.

As for “integrin β1 (from UniProt P05556 21-798) (receptor)”, the binding entry is listed as “binds”.
